Laboratory results as given in patent US20260248920A1, “COMPOSITION FOR PREVENTING OR TREATING INFLAMMATORY DISEASES, CONTAINING POLY(ORGANOPHOSPHAZENE) POLYMER” (KOREA INSTITUTE OF SCIENCE AND TECHNOLOGY, priority 2022, published 2026).
At least one compound was matched to its structure with a doubt left.

Tested on: defective Achilles tendon model
Assay: Histology (H&E, MT) of collagenase-defective Achilles tendon
Assay type: in vivo, mice
Conditions: after 4 weeks

Q: With `Cc1ccc(-c2cc(C(F)(F)F)nn2-c2ccc(S(N)(=O)=O)cc2)cc1` [CXB, Celecoxib] as the compound, how does the “tendon regeneration (H&E staining)” value read?
A: partially regenerated
